No constants are given. Whether binding was seen depends on the method and setting. In cells and extracts the contact can be indirect. A yes stands for co-enrichment or nearness to the bait. Other partners may have been found.
Target: FLAG-tagged DNA-PKcs (DNA-dependent protein kinase catalytic subunit) (UniProt P78527)
Assay: affinity purification with mass spectrometry; anti-FLAG IP of FLAG-DNA-PKcs from HEK293 nuclear extracts, FLAG peptide elution, SDS-PAGE, in-gel trypsin digest, LC-MS/MS (HDMS^E), control HEK293 cells for comparison

Sequences of proteins named here, by UniProt entry; tags and fusion partners are left off.
UniProt P78527: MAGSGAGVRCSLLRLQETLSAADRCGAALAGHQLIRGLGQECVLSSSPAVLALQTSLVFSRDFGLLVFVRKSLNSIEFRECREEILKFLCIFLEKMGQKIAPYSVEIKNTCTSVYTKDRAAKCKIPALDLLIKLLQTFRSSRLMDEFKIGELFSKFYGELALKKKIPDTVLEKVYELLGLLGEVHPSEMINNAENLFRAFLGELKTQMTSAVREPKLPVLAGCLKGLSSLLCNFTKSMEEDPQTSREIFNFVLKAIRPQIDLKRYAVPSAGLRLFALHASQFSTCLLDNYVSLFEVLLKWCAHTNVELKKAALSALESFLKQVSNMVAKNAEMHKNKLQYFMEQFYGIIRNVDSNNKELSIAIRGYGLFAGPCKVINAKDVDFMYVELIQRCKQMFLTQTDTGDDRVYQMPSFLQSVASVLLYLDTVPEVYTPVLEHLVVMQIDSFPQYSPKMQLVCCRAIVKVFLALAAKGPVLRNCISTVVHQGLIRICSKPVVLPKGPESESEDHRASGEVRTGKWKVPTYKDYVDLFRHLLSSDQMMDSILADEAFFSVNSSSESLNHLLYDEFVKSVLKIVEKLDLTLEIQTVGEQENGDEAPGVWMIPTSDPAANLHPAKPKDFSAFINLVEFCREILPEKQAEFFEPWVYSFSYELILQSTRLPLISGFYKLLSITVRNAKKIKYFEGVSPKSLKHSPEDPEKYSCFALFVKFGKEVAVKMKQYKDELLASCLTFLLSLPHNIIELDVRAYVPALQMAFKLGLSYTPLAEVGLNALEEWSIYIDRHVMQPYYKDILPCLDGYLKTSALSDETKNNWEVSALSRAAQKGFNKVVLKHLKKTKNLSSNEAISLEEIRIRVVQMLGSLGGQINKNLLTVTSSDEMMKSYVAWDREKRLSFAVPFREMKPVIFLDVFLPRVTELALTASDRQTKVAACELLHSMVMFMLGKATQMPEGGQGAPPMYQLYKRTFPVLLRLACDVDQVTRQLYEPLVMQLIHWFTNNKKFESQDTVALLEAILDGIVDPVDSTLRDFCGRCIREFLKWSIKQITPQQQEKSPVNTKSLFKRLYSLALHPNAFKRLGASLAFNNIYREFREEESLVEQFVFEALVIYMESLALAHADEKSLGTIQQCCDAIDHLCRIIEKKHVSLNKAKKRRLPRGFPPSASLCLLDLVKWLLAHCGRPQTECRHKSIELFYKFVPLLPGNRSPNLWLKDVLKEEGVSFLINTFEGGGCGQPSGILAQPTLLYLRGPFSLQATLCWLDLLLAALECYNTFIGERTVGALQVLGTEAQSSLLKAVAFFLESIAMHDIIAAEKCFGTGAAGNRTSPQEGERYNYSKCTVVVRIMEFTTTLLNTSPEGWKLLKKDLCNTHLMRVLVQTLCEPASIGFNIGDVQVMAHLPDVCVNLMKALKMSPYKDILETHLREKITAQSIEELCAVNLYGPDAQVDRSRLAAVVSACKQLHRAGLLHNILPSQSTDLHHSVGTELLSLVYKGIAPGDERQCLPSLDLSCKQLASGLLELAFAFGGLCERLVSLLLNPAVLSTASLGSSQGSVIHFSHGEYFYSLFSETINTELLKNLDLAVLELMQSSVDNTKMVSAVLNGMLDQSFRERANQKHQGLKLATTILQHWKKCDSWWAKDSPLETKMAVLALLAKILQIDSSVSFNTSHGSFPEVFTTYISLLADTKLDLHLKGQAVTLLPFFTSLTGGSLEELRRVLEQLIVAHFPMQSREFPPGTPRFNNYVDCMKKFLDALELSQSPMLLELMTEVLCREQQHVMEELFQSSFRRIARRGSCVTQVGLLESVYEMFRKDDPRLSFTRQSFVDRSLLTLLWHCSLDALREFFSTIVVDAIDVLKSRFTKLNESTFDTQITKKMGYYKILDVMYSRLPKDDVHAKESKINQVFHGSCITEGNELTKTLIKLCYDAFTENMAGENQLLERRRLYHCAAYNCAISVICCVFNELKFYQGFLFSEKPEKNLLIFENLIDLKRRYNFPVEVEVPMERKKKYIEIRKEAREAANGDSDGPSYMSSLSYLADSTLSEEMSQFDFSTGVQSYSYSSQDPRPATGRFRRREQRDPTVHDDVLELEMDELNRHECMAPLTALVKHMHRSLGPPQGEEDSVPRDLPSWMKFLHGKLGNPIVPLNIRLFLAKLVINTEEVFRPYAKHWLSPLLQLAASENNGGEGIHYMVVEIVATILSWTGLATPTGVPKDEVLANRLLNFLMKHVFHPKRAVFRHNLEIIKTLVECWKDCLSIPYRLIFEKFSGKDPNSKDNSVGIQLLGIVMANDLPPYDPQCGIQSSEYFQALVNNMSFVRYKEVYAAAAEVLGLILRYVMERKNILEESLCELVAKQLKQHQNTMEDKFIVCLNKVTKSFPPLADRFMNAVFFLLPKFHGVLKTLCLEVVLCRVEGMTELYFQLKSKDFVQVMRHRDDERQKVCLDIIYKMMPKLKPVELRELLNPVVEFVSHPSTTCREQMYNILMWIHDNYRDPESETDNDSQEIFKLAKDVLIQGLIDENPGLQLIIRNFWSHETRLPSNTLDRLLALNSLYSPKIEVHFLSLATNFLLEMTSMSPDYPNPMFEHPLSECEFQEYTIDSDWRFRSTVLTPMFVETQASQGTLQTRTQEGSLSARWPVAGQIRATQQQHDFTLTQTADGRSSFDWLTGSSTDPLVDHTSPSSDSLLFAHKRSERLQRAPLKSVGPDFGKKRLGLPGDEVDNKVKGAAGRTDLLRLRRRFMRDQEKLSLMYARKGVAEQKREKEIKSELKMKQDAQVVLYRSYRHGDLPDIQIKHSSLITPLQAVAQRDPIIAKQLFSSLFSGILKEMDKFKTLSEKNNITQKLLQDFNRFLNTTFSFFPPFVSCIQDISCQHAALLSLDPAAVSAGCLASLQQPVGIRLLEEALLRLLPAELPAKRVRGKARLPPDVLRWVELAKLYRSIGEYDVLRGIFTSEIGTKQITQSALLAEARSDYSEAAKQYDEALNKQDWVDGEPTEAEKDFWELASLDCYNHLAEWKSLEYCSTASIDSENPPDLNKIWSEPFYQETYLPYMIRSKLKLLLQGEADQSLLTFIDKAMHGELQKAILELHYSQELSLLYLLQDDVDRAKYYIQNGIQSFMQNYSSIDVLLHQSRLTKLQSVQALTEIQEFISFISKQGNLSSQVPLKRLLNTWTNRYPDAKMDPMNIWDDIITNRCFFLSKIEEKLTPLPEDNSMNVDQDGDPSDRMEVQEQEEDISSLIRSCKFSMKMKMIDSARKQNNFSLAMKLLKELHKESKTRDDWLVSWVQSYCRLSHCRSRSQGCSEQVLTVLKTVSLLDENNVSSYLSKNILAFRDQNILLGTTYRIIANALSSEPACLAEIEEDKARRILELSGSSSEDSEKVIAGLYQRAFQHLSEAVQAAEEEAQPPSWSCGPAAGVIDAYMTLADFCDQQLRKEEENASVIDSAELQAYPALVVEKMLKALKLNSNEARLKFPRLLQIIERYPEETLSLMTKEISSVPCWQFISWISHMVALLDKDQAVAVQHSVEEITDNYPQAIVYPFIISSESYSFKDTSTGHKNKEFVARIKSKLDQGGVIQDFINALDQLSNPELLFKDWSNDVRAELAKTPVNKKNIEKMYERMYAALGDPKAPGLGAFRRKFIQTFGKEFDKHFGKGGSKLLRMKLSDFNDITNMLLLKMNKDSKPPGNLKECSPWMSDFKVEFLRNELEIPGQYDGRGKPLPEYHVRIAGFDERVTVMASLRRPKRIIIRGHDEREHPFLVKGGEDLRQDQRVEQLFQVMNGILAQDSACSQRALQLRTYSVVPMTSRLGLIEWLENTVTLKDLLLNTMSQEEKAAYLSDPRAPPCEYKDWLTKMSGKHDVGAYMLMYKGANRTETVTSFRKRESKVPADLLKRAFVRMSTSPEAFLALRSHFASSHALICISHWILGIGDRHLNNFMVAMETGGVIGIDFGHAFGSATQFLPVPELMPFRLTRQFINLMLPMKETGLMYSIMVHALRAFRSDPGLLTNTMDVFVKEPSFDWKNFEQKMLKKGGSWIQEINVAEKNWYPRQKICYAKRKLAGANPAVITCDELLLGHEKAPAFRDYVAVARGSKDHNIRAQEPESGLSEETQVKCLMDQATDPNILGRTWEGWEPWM
UniProt P09874: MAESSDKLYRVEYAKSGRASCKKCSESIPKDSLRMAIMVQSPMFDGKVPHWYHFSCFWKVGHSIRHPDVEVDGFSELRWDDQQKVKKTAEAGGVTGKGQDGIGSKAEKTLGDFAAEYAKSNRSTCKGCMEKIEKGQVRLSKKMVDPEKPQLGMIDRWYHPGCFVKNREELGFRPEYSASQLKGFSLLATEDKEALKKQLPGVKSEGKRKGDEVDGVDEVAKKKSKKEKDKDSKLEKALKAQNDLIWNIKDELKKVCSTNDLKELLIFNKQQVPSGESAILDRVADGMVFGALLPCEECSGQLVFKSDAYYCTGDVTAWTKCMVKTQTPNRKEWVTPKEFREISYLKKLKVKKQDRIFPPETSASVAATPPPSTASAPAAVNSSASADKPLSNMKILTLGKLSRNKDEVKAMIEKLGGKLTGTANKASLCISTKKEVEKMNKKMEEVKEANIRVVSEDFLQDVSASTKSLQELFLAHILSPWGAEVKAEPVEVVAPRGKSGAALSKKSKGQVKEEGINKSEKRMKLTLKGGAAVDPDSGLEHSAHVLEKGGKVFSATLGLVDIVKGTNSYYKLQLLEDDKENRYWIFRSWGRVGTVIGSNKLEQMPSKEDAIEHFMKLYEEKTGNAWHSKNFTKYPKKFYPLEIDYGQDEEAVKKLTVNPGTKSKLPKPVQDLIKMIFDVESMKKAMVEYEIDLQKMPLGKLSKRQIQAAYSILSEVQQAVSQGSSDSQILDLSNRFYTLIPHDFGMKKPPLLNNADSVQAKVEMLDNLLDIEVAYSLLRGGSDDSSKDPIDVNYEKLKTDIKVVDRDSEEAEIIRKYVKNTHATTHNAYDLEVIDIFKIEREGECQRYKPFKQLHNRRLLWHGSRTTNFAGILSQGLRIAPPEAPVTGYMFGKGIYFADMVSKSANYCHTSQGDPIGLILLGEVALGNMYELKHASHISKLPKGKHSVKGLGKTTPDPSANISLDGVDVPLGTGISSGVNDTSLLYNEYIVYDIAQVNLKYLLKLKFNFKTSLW

Molecule: PARP1 (from UniProt P09874 1-1014)
- binding: binds

B1: protein phosphatase 6 regulatory subunit 3 (PP6R3) (protein, UniProt Q5H9R7 1-873)
chain: MFWKFDLHSSSHIDTLLEREDVTLKELMDEEDVLQECKAQNRKLIEFLLKAECLEDLVSFIIEEPPQDMDEKIRYKYPNISCELLTSDVSQMNDRLGEDESLLMKLYSFLLNDSPLNPLLASFFSKVLSILISRKPEQIVDFLKKKHDFVDLIIKHIGTSAIMDLLLRLLTCIEPPQPRQDVLNWLNEEKIIQRLVEIVHPSQEEDRHSNASQSLCEIVRLSRDQMLQIQNSTEPDPLLATLEKQEIIEQLLSNIFHKEKNESAIVSAIQILLTLLETRRPTFEGHIEICPPGMSHSACSVNKSVLEAIRGRLGSFHELLLEPPKKSVMKTTWGVLDPPVGNTRLNVIRLISSLLQTNTSSINGDLMELNSIGVILNMFFKYTWNNFLHTQVEICIALILASPFENTENATITDQDSTGDNLLLKHLFQKCQLIERILEAWEMNEKKQAEGGRRHGYMGHLTRIANCIVHSTDKGPNSALVQQLIKDLPDEVRERWETFCTSSLGETNKRNTVDLVTTCHIHSSSDDEIDFKETGFSQDSSLQQAFSDYQMQQMTSNFIDQFGFNDEKFADQDDIGNVSFDRVSDINFTLNTNESGNIALFEACCKERIQQFDDGGSDEEDIWEEKHIAFTPESQRRSSSGSTDSEESTDSEEEDGAKQDLFEPSSANTEDKMEVDLSEPPNWSANFDVPMETTHGAPLDSVGSDVWSTEEPMPTKETGWASFSEFTSSLSTKDSLRSNSPVEMETSTEPMDPLTPSAAALAVQPEAAGSVAMEASSDGEEDAESTDKVTETVMNGGMKETLSLTVDAKTETAVFKSEEGKLSTSQDAACKDAEECPETAEAKCAAPRPPSSSPEQRTGQPSAPGDTSVNGPV
- binding: binds
